Measurements as given in US20260176249A1, “PROTEIN KINASE INHIBITOR, PREPARATION METHOD THEREFOR, AND APPLICATION THEREOF” (SHANDONG LUYE PHARMACEUTICAL CO., LTD., priority 2021, published 2026).
Some of these results come from one statement about several compounds together.

The chains behind the UniProt entries cited, without tags or fusion partners.
UniProt P53350, whole entry: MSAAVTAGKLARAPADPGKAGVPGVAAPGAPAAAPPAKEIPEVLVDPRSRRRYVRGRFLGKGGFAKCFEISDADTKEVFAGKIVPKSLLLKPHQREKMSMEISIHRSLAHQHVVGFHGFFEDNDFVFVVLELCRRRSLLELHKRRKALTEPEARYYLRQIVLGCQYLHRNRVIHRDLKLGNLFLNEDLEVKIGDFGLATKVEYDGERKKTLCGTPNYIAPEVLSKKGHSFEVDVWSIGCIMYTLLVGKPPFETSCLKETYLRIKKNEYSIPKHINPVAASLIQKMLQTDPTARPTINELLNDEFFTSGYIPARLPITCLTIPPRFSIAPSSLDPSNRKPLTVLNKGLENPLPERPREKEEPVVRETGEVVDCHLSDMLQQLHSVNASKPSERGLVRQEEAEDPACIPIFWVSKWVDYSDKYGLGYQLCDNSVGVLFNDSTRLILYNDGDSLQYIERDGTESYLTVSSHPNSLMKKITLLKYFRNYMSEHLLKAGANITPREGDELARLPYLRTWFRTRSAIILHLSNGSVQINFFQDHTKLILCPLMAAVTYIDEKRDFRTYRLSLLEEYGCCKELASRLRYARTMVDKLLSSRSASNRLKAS

The compounds below were run against T1, PLK1 kinase (Homo sapiens, UniProt P53350) (assay: Inhibitory activity on PLK1 kinase).
T1 construct: purchased Carnabio (Carna Biosciences) 05-157
Assay type: biochemical
Experimental: Detection solution PerkinElmer #TRF0218-M
Detection instrument PerkinElemer EnVision
a. Using the Echo machine, the compounds to be tested were diluted by 1:3 on a 384-well plate, and the highest concentration was 1 μM, with a total of 10 concentration points, and each concentration was tested in duplicate wells.
b. 5 μL/well of PLK1 kinase and peptide substrate mixture were added to the assay plate (containing controls).
d. The reaction was initiated by adding 5 μL/well of ATP solution;
e. The assay plate was centrifuged at 1000 rpm for about 15 seconds, a film was used to seal the assay plate which was incubated at 23° C. for a period of time;
f. A detection solution was added to all wells of the assay plate;
g. The assay plate was centrifuged at 1000 rpm for approximately 15 seconds, a film was used to seal the assay plate which was incubated at 23° C. for 60 min.
h. The assay plate was read on EnVision. The test results were analyzed using XLFIT5 software.

Kinase activity compared with the control drug onvansertib, higher than that of the control drug:
CCc1sc(C(N)=O)c2c1-c1nc(Nc3cc(N4CCN(C)CC4)ccc3OC(F)(F)F)ncc1CC2 [Compound 7]
CN1CCN(c2ccc(OC(F)(F)F)c(Nc3ncc4c(n3)-c3c(c(C(=O)NO)nn3CCF)CC4)c2)CC1 [Compound 17]
CN1CCN(c2ccc(OC(F)(F)F)c(Nc3ncc4ccc5c(C(N)=O)nn(C)c5c4n3)c2)CC1 [Compound 3]
